{
  "sequences": {"note": "Amino acid sequences for entries named in this document (tags omitted). A change or cut given only in a name is not applied to a line headed by its entry. Residues count along the entry.", "UniProt P46531, residues 1754-2555": "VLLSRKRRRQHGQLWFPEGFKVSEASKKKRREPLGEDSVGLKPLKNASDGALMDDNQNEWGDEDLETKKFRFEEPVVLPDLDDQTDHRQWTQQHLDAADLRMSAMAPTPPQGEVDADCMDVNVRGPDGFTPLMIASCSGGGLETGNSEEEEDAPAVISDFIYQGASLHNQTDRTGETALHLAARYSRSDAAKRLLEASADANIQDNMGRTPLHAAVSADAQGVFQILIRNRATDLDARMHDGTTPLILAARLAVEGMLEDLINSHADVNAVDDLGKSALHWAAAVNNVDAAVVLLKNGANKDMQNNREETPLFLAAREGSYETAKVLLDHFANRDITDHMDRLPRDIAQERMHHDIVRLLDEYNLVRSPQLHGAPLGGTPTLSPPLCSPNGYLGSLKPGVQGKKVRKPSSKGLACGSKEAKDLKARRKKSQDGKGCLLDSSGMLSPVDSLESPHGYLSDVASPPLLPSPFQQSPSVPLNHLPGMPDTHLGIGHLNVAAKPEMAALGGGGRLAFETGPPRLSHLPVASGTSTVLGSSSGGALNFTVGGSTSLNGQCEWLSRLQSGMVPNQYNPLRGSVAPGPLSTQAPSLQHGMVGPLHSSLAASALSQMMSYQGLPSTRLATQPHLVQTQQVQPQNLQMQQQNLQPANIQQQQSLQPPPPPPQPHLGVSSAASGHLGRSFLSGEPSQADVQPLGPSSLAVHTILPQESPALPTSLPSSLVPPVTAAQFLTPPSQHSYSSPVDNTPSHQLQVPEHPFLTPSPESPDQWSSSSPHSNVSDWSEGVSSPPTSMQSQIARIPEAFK", "UniProt P05412": "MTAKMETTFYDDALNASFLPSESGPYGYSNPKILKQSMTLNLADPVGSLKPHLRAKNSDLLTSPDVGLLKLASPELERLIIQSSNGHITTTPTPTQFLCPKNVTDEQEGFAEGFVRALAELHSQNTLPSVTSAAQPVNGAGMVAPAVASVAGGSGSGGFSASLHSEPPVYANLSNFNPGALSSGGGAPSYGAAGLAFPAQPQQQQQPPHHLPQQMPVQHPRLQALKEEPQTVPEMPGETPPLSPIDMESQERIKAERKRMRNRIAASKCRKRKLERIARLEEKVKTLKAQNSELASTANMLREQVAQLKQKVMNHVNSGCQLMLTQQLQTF", "UniProt Q9UM47, residues 40-2321": "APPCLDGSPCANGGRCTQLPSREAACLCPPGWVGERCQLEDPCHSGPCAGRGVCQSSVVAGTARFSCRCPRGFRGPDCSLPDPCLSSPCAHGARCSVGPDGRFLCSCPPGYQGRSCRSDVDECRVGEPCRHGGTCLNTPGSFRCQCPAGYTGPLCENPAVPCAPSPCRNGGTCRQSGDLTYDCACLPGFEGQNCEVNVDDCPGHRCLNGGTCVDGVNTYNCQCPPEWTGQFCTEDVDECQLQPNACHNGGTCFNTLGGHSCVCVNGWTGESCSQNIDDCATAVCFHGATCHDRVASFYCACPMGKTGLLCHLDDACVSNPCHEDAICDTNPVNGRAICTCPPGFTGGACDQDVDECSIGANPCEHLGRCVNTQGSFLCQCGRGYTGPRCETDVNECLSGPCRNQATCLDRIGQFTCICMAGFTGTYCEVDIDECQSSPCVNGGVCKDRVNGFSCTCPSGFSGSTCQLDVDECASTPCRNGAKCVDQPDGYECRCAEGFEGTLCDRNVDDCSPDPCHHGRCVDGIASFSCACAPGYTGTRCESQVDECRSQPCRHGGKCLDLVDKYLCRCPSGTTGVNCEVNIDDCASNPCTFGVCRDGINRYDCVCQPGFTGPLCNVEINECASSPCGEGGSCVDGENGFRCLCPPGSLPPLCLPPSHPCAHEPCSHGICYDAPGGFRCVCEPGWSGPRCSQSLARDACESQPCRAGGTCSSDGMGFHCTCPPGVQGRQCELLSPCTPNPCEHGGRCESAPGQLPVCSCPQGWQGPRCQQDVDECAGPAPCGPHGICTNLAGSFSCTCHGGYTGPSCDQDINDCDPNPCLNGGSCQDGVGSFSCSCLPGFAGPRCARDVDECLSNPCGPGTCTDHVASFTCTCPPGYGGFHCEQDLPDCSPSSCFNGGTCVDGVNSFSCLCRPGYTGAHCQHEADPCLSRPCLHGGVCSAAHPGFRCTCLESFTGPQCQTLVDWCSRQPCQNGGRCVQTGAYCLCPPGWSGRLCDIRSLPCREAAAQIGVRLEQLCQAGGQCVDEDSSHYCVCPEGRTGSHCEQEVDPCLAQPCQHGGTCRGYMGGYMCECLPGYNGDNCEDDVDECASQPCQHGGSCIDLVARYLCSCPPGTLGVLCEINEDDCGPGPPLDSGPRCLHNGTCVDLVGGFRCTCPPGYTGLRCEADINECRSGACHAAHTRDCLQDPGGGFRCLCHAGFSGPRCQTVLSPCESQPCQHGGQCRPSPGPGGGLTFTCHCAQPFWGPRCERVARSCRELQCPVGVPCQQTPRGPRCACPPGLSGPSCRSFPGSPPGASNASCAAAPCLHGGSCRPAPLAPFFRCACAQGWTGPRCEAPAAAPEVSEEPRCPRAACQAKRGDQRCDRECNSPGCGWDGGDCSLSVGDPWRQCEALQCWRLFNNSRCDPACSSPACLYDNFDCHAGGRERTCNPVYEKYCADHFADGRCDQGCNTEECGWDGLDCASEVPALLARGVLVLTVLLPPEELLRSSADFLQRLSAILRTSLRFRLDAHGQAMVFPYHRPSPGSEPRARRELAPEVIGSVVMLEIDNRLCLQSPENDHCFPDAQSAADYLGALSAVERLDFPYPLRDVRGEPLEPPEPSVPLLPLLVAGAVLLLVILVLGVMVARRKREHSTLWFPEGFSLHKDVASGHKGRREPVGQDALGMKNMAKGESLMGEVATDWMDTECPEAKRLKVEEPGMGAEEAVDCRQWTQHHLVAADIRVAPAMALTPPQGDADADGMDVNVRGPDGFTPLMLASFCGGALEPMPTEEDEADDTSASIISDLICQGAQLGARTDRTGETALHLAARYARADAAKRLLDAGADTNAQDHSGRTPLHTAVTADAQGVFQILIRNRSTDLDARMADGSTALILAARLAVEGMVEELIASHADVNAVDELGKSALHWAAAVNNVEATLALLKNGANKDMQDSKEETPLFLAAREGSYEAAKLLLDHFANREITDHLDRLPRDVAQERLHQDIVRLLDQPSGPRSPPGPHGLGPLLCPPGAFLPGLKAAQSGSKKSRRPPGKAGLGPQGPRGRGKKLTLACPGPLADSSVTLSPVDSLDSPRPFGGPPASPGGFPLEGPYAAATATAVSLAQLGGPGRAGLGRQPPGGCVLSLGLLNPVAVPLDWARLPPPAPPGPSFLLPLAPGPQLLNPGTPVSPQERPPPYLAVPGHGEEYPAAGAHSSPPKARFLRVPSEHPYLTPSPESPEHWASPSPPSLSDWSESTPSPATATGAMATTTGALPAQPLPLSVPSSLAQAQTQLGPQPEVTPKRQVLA", "UniProt P49336": "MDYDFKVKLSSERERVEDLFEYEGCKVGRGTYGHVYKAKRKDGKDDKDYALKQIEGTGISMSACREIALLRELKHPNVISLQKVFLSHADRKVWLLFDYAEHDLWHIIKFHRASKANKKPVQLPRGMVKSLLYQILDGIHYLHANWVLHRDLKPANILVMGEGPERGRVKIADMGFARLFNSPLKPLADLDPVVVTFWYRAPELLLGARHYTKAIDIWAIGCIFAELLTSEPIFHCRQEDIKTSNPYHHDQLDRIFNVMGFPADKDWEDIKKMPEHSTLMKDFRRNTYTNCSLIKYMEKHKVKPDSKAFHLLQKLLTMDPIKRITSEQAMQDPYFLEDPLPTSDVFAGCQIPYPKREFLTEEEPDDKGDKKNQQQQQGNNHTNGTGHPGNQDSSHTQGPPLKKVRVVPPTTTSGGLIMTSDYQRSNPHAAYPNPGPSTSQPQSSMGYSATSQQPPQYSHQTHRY", "UniProt Q969H0": "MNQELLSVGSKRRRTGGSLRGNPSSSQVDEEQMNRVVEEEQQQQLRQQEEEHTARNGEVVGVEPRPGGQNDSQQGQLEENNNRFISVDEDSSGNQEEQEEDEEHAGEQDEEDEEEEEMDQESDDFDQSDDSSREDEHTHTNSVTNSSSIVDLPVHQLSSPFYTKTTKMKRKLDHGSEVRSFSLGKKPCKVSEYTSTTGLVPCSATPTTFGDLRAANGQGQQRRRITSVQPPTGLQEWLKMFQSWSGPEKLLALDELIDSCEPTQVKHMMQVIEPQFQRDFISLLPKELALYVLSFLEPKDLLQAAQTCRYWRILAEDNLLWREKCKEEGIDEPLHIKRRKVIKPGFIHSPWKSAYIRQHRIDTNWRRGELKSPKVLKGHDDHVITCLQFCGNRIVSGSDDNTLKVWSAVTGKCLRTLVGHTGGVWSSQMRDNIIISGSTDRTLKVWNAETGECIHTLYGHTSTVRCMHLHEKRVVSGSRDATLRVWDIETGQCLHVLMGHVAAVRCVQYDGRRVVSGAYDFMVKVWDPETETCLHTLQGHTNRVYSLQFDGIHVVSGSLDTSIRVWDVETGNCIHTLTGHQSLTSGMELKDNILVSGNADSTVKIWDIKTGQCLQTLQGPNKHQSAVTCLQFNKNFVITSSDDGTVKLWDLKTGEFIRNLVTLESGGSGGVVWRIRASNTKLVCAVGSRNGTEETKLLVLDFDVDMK"},
  "source": "patent US20220323386A1",
  "about": "(UNIVERSITY OF SOUTHERN CALIFORNIA, published 2022)",
  "molecules": {"B1": {"name": "Tre2-Bub2-Cdc16 domain family member 15 (TBC1D15) (other, UniProt Q8TC07 1-691, looked up)", "chain": "MAAAGVVSGKIIYEQEGVYIHSSCGKTNDQDGLISGILRVLEKDAEVIVDWRPLDDALDSSSILYARKDSSSVVEWTQAPKERGHRGSEHLNSYEAEWDMVNTVSFKRKPHTNGDAPSHRNGKSKWSFLFSLTDLKSIKQNKEGMGWSYLVFCLKDDVVLPALHFHQGDSKLLIESLEKYVVLCESPQDKRTLLVNCQNKSLSQSFENLLDEPAYGLIQAGLLDRRKLLWAIHHWKKIKKDPYTATMIGFSKVTNYIFDSLRGSDPSTHQRPPSEMADFLSDAIPGLKINQQEEPGFEVITRIDLGERPVVQRREPVSLEEWTKNIDSEGRILNVDNMKQMIFRGGLSHALRKQAWKFLLGYFPWDSTKEERTQLQKQKTDEYFRMKLQWKSISQEQEKRNSRLRDYRSLIEKDVNRTDRTNKFYEGQDNPGLILLHDILMTYCMYDFDLGYVQGMSDLLSPLLYVMENEVDAFWCFASYMDQMHQNFEEQMQGMKTQLIQLSTLLRLLDSGFCSYLESQDSGYLYFCFRWLLIRFKREFSFLDILRLWEVMWTELPCTNFHLLLCCAILESEKQQIMEKHYGFNEILKHINELSMKIDVEDILCKAEAISLQMVKCKELPQAVCEILGLQGSEVTTPDSDVGEDENVVMTPCPTSAFQSNALPTLSASGARNDSPTQIPVSSDVCRLTPA", "notes": "TBC1D15 as present in cell lysates (co-IP); also called TBC1 domain family member 15"}, "B2": {"name": "purified TBC1D15 protein (protein, UniProt Q8TC07 1-691, looked up)", "chain": "B1 chain"}, "B3": {"name": "Flag-tagged TBC1D15 protein (protein, UniProt Q8TC07 1-691, looked up)", "chain": "B1 chain"}, "B4": {"name": "NUMB (protein, UniProt P49757 1-651, looked up)", "chain": "MNKLRQSFRRKKDVYVPEASRPHQWQTDEEGVRTGKCSFPVKYLGHVEVDESRGMHICEDAVKRLKAERKFFKGFFGKTGKKAVKAVLWVSADGLRVVDEKTKDLIVDQTIEKVSFCAPDRNFDRAFSYICRDGTTRRWICHCFMAVKDTGERLSHAVGCAFAACLERKQKREKECGVTATFDASRTTFTREGSFRVTTATEQAEREEIMKQMQDAKKAETDKIVVGSSVAPGNTAPSPSSPTSPTSDATTSLEMNNPHAIPRRHAPIEQLARQGSFRGFPALSQKMSPFKRQLSLRINELPSTMQRKTDFPIKNAVPEVEGEAESISSLCSQITNAFSTPEDPFSSAPMTKPVTVVAPQSPTFQANGTDSAFHVLAKPAHTALAPVAMPVRETNPWAHAPDAANKEIAATCSGTEWGQSSGAASPGLFQAGHRRTPSEADRWLEEVSKSVRAQQPQASAAPLQPVLQPPPPTAISQPASPFQGNAFLTSQPVPVGVVPALQPAFVPAQSYPVANGMPYPAPNVPVVGITPSQMVANVFGTAGHPQAAHPHQSPSLVRQQTFPHYEASSATTSPFFKPPAQHLNGSAAFNGVDDGRLASADRHTEVPTGTCPVDPFEAQWAALENKSKQRTNPSPTNPFSSDLQKTFEIEL"}},
  "key": {"[1]": {"target": "NOTCH1 intracellular domain, full length (NICD-FL) (human) (UniProt P46531)", "experiment": "co-IP and immunoblot with myc-NICD constructs in TICs"}, "[2]": {"target": "wild-type c-Jun (UniProt P05412)", "experiment": "IP with anti-Fbw7 antibody, Western blot"}, "[3]": {"target": "NOTCH1 intracellular domain, full length (NICD-FL) (human) (UniProt P46531)", "experiment": "co-IP Western blot with NICD deletion mutants in CD133(+) TICs"}, "[4]": {"target": "NOTCH3 (UniProt Q9UM47)", "experiment": "large-scale immunoaffinity purification and LC-MS analysis"}, "[5]": {"target": "NOTCH1 intracellular domain, full length (NICD-FL) (human) (UniProt P46531)", "experiment": "co-IP Western blot in shTBC1D15 CD133(+) TICs"}, "[6]": {"target": "NOTCH1 intracellular domain, full length (NICD-FL) (human) (UniProt P46531)", "experiment": "co-IP Western blot in CD133(+) TICs"}, "[7]": {"target": "NOTCH1 intracellular domain, full length (NICD-FL) (human) (UniProt P46531)", "experiment": "co-IP Western blot of cell fractions of CD133(+) TICs"}, "[8]": {"target": "T1, GST-NUMB-PTB (UniProt P49757)", "T1 sequence (looked up)": "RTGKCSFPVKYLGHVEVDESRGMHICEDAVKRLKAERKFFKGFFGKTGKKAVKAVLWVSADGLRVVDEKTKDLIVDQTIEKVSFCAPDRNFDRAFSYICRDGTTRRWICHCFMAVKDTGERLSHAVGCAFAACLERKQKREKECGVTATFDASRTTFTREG", "experiment": "cell-free in vitro binding assay, GST fragments on beads"}, "[9]": {"target": "T2, GST-NUMB-full length (UniProt P49757)", "T2 sequence (looked up)": "B4 chain", "experiment": "cell-free in vitro binding assay, GST fragments on beads"}, "[10]": {"target": "T1, GST-NUMB-PTB", "experiment": "cell-free in vitro binding assay"}, "[11]": {"target": "T3, NUMB isoform 5 (UniProt P49757)", "T3 sequence (looked up)": "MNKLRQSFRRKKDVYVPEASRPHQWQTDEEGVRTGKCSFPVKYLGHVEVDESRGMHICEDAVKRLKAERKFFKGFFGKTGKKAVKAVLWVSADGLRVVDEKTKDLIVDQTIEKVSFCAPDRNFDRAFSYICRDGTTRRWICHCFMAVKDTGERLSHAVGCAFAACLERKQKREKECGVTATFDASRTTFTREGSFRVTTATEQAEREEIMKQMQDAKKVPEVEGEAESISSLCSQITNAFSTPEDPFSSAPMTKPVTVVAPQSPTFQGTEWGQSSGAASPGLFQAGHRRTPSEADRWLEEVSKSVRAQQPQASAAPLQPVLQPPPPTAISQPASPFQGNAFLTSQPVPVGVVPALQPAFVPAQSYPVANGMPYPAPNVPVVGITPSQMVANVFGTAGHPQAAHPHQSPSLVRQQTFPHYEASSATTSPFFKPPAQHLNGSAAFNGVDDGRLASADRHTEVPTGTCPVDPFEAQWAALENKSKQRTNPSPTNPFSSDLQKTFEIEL", "experiment": "cell-free in vitro binding assay"}, "[12]": {"target": "NOTCH1 intracellular domain, full length (NICD-FL) (human) (UniProt P46531)", "experiment": "TBC1D15 knockdown in TICs"}},
  "note": "Results are given in words; binding and its absence hold for the method and conditions named. For some of these results: Binding seen in cells or lysates may run through a third protein. Some results given as binding are weak or reduced against the parent protein; the word gives no strength. For some of these results: Sequences can lack the tags named with a protein.",
  "data": [
    {"molecule": "CDK8 (from UniProt P49336 1-464) (enzyme)", "values": [
      {"measurement": "binding", "setting": "[1]", "result": "binds"}
    ]},
    {"molecule": "Fbw7 (from UniProt Q969H0 1-707) (enzyme)", "values": [
      {"measurement": "binding", "setting": "[2]", "result": "binds"}
    ]},
    {"molecule": "B1", "values": [
      {"measurement": "binding", "setting": "[1]", "result": "binds"},
      {"measurement": "binding", "setting": "[3]", "result": "binds"},
      {"measurement": "binding", "setting": "[4]", "result": "binds"},
      {"measurement": "binding", "setting": "[5]", "result": "binds"},
      {"measurement": "binding", "setting": "[6]", "result": "binds"},
      {"measurement": "binding", "setting": "[7]", "result": "binds"}
    ]},
    {"molecule": "B2", "values": [
      {"measurement": "binding", "setting": "[8]", "result": "binds"},
      {"measurement": "binding", "setting": "[9]", "result": "binds"},
      {"measurement": "binding", "setting": "[10]", "result": "binds"}
    ]},
    {"molecule": "B3", "values": [
      {"measurement": "binding", "setting": "[11]", "result": "binds"}
    ]},
    {"molecule": "B4", "values": [
      {"measurement": "binding", "setting": "[12]", "result": "binds"}
    ]}
  ]
}
